# Reference: publication doi:10.1101/2024.12.23.630104
# Protein sequences, listed by entry. Tags and fused reporters are not part of them.
# UniProt O15037: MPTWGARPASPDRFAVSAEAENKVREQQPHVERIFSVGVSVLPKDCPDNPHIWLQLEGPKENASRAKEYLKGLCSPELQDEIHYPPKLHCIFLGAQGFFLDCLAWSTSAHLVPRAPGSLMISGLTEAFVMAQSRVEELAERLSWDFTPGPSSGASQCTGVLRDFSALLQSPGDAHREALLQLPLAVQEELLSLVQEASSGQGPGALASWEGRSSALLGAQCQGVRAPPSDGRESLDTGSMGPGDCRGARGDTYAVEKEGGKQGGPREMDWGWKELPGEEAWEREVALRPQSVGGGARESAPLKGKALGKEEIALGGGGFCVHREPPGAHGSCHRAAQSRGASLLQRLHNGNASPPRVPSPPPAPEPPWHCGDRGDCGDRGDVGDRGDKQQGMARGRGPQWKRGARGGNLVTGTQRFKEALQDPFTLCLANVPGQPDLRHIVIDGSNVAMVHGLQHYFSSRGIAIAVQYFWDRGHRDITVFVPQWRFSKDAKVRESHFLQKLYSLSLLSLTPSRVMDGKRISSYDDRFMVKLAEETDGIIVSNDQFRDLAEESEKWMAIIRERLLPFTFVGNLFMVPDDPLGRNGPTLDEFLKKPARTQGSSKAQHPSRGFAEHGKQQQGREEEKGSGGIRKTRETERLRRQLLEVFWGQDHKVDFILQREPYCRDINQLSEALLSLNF
# UniProt Q7Z2W4: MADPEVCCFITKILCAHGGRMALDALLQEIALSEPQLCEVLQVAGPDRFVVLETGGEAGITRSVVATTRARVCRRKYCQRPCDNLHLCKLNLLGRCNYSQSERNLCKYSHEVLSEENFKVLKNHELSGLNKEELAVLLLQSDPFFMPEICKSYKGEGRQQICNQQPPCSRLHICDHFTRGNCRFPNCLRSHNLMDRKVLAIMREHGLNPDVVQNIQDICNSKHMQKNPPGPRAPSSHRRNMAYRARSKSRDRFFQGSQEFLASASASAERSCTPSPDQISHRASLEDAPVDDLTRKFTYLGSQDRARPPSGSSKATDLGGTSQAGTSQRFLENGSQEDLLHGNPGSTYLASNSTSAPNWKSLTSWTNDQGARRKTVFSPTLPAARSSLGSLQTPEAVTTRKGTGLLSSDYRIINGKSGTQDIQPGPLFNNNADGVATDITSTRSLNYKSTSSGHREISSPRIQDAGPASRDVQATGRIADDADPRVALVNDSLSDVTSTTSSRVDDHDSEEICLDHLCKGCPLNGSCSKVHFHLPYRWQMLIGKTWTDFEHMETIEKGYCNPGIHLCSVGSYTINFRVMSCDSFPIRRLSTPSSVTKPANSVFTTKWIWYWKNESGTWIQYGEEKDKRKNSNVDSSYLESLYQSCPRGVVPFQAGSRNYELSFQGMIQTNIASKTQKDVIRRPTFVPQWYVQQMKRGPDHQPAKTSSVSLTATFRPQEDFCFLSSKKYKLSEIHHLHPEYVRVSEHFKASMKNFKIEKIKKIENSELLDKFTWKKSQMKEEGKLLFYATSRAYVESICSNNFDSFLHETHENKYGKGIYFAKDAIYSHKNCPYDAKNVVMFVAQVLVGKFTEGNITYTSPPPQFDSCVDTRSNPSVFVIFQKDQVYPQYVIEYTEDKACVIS
# These are yes or no findings as the source states them, for the method shown. In cells and extracts the contact can be indirect. Some results given as binding are weak or reduced against the parent protein; the word gives no strength.
# Biological target: wild type KHNYN-GFP (human) (UniProt O15037)
# Assay: co-IP
substance,measurement,value
Zinc finger antiviral protein (ZAP) (from UniProt Q7Z2W4 1-902),binding,binds
